Laboratory results taken from the supplement of paper PMC5770031.
Some of the results follow. Single values are uncertain here, since repeats match poorly.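 Flies heterozygous for the ATM8 allele over a balancer chromosome carrying normal ATM were mated with each other on treated food. Parents laid eggs for 5–6 days and the young then developed for about 12 days, so both parents and larvae ate the compound. The read-out is the share of all emerged adults that carry two ATM8 copies, compared with 2% DMSO control vials. The paper called compounds neutral at 10–20% such offspring, harmful below 10%, and helpful above 20%.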

System: Drosophila melanogaster ATM8 (temperature-sensitive ATM allele)
Assay: fraction of eclosed F1 progeny that are homozygous ATM8 (rescue of developmental lethality); higher = more rescue of ATM8 developmental lethality; extreme values may be limits of the assay
Conditions: compound concentration applied to food 0.2 mM; 21 °C

`NC1=NCCN1CC(=O)O` was tested. Which “fraction of eclosed F1 progeny that are homozygous ATM8” value (shortened to “fraction”) did it give?
Its value is 0.

Which “fraction” value does the source give for `CN1CCN(CCCN2c3ccccc3Sc3ccc(Cl)cc32)CC1` here?
Its value is 0.25.

How did the “fraction” value turn out when `CC(=O)Oc1cc(OC(C)=O)c2c(c1)O[C@H](c1ccc(OC(C)=O)c(OC(C)=O)c1)[C@H](OC(C)=O)C2` was run?
Its value is 0.116.

`COc1ccc(O)c(C(C)(C)C)c1.COc1ccc(O)cc1C(C)(C)C` was tested. Which “fraction” value did it give?
Its value is 0.0946.

Which “fraction” value does the source give for `CC(=O)O[C@H]1CC[C@@]2(C)[C@@H](CC[C@@H]3[C@@H]2CC(=O)[C@]2(C)[C@@H]4[C@H](C[C@@H]32)O[C@]2(CC[C@@H](C)CO2)[C@H]4C)C1` here?
The value was 0.311.

Which “fraction” value does the source give for `COC(=O)/C=C/C(C)=C\C=C\C(C)=C\C=C\C=C(C)\C=C\C=C(C)\C=C\C(=O)O` here?
The value was 0.113.

Which “fraction” value does the source give for `C1CNCCN1` here?
The value was 0.148.

Which “fraction” value does the source give for `COc1c2occc2c(OC)c2c(=O)cc(C)oc12` here?
Its value is 0.0556.

How did the “fraction” value turn out when `CC[C@H](C)C(=O)O[C@H]1CCC=C2C=C[C@H](C)[C@H](CC[C@@H]3C[C@@H](O)CC(=O)O3)[C@H]21` was run?
Its value is 0.128.

How did the “fraction” value turn out when `Nc1cc(C(Cl)=C(Cl)Cl)c(S(N)(=O)=O)cc1S(N)(=O)=O` was run?
Its value is 0.385.

How did the “fraction” value turn out when `c1cncc(C2=NCCC2)c1` was run?
The value was 0.08.

How did the “fraction” value turn out when `C[C@H](CCC(=O)O)[C@H]1CC[C@H]2[C@@H]3[C@H](O)C[C@@H]4C[C@H](O)CC[C@]4(C)[C@H]3CC[C@]12C` was run?
The value was 0.0476.

For `NCC(O)CC(=O)O` (stereo not drawn), which “fraction” value is on record?
Its value is 0.0263.

With `O=C(/C=C/c1ccc(O)c(O)c1)OCCc1ccccc1` as the compound, how does the “fraction” value read?
Its value is 0.125.

For `NNc1nncc2ccccc12`, which “fraction” value is on record?
Its value is 0.

How did the “fraction” value turn out when `CC(=O)OCC(CCn1cnc2cnc(N)nc21)COC(C)=O` was run?
The value was 0.333.

For `CN(C)[C@@H]1C(O)=C(C(=O)NCN2CCCC2)C(=O)[C@@]2(O)C(O)=C3C(=O)c4c(O)cccc4[C@@](C)(O)[C@H]3C[C@@H]12`, which “fraction” value is on record?
Its value is 0.128.

`O=S(=O)([O-])NC1CCCCC1.[Na+]` was tested. Which “fraction” value did it give?
Its value is 0.0893.

With `Cc1c(N(C)CS(=O)(=O)O)c(=O)n(-c2ccccc2)n1C` as the compound, how does the “fraction” value read?
Its value is 0.0507.

How did the “fraction” value turn out when `COc1cc2c3cc1Oc1c(OC)c(OC)cc4c1[C@@H](Cc1ccc(O)c(c1)Oc1ccc(cc1)C[C@@H]3N(C)CC2)N(C)CC4` was run?
The value was 0.179.

For `CC(NCCC(c1ccccc1)c1ccccc1)c1ccccc1` (stereo not drawn), which “fraction” value is on record?
The value was 0.0638.

For `CC(=O)Oc1ccc2c(C)cc(=O)oc2c1`, which “fraction” value is on record?
Its value is 0.0698.

`CCc1cn([C@H]2C[C@H](O)[C@@H](CO)O2)c(=O)[nH]c1=O` was tested. Which “fraction” value did it give?
Its value is 0.0331.

With `O=S(=O)(O)NC1CCCCC1` as the compound, how does the “fraction” value read?
The value was 0.141.

For `C[C@]12CC[C@@H]3c4ccc(OC(=O)N(CCCl)CCCl)cc4CC[C@H]3[C@@H]1CC[C@@H]2O`, which “fraction” value is on record?
Its value is 0.125.

Which “fraction” value does the source give for `C[C@@H]1O[C@@H](O[C@H]2[C@H](Oc3cc(O)c4c(=O)cc(-c5ccc(O)cc5)oc4c3)O[C@H](CO)[C@@H](O)[C@@H]2O)[C@H](O)[C@H](O)[C@H]1O` here?
Its value is 0.18.

With `CCN(CC)CCc1nc(-c2ccccc2)no1` as the compound, how does the “fraction” value read?
The value was 0.182.

Which “fraction” value does the source give for `Cc1nccc2c1[nH]c1ccccc12` here?
Its value is 0.115.

For `C[C@H]1C[C@@H]2[C@H]([C@@H](O)C[C@@]3(C)[C@H]2CC[C@]3(O)C(=O)CO)[C@@]2(C)C=CC(=O)C=C12`, which “fraction” value is on record?
Its value is 0.275.

`C[C@]12C=CC(=O)C=C1CC[C@@H]1[C@@H]2CC[C@]2(C)C(=O)CC[C@@H]12` was tested. Which “fraction” value did it give?
The value was 0.29.

Which “fraction” value does the source give for `CCCNCC(O)COc1ccccc1C(=O)CCc1ccccc1` (stereo not drawn) here?
The value was 0.247.

With `COc1cc([C@@H]2c3cc4c(cc3[C@@H](O[C@@H]3O[C@@H]5CO[C@@H](C)O[C@H]5[C@H](O)[C@H]3O)[C@H]3COC(=O)[C@H]23)OCO4)cc(OC)c1O` as the compound, how does the “fraction” value read?
Its value is 0.224.

`COc1ccccc1OCC(O)CN1CCN(CC(=O)Nc2c(C)cccc2C)CC1` (stereo not drawn) was tested. Which “fraction” value did it give?
The value was 0.21.

`O=[N+]([O-])c1cccc2cn[nH]c12` was tested. Which “fraction” value did it give?
The value was 0.208.

Which “fraction” value does the source give for `CC(=O)CC1CCCCN1` (stereo not drawn) here?
The value was 0.235.

Which “fraction” value does the source give for `CC(=O)Oc1ccc2c(c1)CCC1C2CC[C@]2(C)C(=O)CCC12` (stereo partly drawn) here?
The value was 0.122.

Which “fraction” value does the source give for `CC(=O)O[C@@H]1C[C@@]23C[C@@]24CC[C@H](O[C@@H]2OC[C@@H](O)[C@H](O)[C@H]2O)C(C)(C)[C@@H]4CC[C@H]3[C@]2(C)C[C@@H]3O[C@]4(C[C@@H](C)[C@@H]3[C@@]12C)O[C@H](O)[C@@]1(C)O[C@@H]41` here?
Its value is 0.125.

Which “fraction” value does the source give for `CN(C)c1nc(N(C)C)nc(N(C)C)n1` here?
The value was 0.0787.

Which “fraction” value does the source give for `N[C@@H](Cc1ccccc1)C(=O)O` here?
Its value is 0.0444.

`CC[C@@]1(O)C[C@H](O[C@H]2C[C@H](N(C)C)[C@H](O)[C@H](C)O2)c2c(cc3c(c2O)C(=O)c2c(O)ccc(O)c2C3=O)[C@H]1C(=O)OC` was tested. Which “fraction” value did it give?
The value was 0.107.

How did the “fraction” value turn out when `CC(=O)O[C@]1(C(C)=O)CC[C@H]2[C@@H]3C[C@H](C)C4=CC(=O)CC[C@]4(C)[C@H]3CC[C@@]21C` was run?
Its value is 0.0476.

With `CC(C)NCC(O)c1ccc2ccccc2c1` (stereo not drawn) as the compound, how does the “fraction” value read?
The value was 0.311.

`NCC(=O)NCC(=O)O` was tested. Which “fraction” value did it give?
The value was 0.102.

How did the “fraction” value turn out when `Cc1c(O)c(=O)ccn1C` was run?
The value was 0.121.

Which “fraction” value does the source give for `O=[N+]([O-])c1cc([As](=O)(O)O)ccc1O` here?
Its value is 0.121.

For `O=C1C[C@@H](c2ccc(O)cc2)Oc2cc(O)cc(O)c21`, which “fraction” value is on record?
Its value is 0.208.

How did the “fraction” value turn out when `CCC(=O)O[C@]1(C(=O)CCl)[C@@H](C)C[C@H]2[C@@H]3CCC4=CC(=O)C=C[C@]4(C)[C@@]3(F)[C@@H](O)C[C@@]21C` was run?
Its value is 0.102.

How did the “fraction” value turn out when `c1ccc([C@H]2CN3CCSC3=N2)cc1` was run?
Its value is 0.0853.
